Measured values: the supplement of paper PMC7666118
The other results are listed elsewhere or left out.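 The calls were made as follows: active = dose-dependent thermal stabilisation significant by F-test of dose-response against flat model at 10% FDR; inactive = not significant.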

By UniProt entry, the sequences of proteins in these tests, tags left out. Where a name states a change or a piece, a line headed by the entry shows the natural chain unless it says otherwise.
UniProt Q5TZA2: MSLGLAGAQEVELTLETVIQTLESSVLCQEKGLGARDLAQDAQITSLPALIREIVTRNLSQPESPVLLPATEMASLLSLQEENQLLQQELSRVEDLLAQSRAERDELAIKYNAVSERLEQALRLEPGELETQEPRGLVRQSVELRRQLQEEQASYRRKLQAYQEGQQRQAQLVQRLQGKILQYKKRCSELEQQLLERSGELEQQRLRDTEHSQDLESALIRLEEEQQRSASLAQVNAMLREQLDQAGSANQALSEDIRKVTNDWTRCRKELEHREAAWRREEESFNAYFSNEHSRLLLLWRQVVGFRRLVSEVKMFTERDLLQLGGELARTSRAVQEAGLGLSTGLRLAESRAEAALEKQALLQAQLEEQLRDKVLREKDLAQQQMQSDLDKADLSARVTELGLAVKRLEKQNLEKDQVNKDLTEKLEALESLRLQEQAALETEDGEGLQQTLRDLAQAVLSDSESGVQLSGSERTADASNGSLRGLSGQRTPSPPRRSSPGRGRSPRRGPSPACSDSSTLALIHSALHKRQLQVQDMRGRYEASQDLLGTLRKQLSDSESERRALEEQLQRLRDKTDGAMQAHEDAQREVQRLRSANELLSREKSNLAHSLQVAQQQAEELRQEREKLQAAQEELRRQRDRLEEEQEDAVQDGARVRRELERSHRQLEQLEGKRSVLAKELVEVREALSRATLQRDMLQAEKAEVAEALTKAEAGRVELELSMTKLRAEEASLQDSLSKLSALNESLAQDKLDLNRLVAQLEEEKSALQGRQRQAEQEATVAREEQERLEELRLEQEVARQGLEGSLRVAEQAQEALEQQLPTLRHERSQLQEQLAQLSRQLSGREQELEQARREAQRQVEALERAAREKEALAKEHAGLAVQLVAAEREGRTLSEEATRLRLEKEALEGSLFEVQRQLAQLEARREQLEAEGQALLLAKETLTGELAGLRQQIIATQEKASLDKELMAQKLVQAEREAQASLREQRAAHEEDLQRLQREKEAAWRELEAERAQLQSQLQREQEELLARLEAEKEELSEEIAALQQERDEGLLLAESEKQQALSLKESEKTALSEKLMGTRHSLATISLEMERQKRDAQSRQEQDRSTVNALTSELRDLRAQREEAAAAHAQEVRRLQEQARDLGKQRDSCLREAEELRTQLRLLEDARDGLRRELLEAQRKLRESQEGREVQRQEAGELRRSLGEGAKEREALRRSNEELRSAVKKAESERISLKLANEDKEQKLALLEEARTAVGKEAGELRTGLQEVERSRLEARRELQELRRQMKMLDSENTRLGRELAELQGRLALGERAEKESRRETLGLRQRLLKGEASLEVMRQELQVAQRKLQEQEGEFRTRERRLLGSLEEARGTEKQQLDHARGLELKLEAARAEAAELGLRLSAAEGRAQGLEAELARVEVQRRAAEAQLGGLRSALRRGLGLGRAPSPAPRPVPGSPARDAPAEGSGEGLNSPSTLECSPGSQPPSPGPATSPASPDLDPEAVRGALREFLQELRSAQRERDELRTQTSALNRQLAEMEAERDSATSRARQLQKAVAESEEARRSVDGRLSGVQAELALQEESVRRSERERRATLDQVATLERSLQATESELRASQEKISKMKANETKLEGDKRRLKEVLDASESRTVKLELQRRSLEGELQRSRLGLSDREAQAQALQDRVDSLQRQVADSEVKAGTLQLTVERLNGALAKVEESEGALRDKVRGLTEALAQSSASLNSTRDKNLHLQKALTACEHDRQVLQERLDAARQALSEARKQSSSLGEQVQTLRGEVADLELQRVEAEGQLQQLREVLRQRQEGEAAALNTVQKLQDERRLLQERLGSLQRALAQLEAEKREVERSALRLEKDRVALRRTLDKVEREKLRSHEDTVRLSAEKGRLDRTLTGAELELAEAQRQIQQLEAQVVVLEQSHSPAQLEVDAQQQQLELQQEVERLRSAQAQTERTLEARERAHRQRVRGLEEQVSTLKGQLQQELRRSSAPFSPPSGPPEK
UniProt P25685, whole entry: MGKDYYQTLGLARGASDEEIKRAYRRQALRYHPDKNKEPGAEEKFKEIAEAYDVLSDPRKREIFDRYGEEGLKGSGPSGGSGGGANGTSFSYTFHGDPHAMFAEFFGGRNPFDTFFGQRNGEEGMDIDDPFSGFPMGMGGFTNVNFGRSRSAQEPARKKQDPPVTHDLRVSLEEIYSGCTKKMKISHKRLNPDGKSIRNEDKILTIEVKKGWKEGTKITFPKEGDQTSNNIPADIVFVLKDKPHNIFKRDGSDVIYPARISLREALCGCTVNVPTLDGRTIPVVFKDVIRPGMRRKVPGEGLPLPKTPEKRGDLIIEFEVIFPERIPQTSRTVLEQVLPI
UniProt Q9P013: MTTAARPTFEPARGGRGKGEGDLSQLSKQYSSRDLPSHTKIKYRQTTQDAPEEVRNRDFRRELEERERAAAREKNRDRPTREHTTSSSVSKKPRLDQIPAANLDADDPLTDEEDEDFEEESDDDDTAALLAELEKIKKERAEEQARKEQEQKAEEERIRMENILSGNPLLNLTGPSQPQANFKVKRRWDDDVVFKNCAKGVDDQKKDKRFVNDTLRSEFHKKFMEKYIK
UniProt O60231: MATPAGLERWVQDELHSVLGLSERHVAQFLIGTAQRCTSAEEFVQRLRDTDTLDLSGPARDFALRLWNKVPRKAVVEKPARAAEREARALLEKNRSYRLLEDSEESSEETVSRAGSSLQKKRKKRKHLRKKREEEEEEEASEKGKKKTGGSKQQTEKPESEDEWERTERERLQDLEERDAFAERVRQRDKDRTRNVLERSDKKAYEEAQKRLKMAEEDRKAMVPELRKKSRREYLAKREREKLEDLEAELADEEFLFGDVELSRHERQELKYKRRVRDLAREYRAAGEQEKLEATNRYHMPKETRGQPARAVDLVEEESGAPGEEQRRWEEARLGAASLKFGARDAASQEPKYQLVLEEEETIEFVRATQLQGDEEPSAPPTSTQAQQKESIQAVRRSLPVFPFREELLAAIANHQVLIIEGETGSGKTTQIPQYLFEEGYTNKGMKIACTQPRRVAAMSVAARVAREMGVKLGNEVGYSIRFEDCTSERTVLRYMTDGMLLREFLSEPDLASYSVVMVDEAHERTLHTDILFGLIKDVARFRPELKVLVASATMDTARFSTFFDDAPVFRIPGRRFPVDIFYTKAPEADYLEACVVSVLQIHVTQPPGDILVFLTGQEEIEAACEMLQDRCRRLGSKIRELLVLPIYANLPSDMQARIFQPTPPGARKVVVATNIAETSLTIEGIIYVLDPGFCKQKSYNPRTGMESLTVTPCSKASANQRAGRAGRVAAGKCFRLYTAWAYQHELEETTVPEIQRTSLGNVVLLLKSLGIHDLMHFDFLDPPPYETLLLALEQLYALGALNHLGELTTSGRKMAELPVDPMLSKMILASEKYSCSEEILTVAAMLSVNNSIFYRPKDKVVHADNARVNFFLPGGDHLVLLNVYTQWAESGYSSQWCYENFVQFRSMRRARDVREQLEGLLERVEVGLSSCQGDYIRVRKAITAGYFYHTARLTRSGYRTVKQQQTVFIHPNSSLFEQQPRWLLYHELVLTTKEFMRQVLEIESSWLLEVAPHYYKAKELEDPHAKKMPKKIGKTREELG
UniProt Q9H4E7, whole entry: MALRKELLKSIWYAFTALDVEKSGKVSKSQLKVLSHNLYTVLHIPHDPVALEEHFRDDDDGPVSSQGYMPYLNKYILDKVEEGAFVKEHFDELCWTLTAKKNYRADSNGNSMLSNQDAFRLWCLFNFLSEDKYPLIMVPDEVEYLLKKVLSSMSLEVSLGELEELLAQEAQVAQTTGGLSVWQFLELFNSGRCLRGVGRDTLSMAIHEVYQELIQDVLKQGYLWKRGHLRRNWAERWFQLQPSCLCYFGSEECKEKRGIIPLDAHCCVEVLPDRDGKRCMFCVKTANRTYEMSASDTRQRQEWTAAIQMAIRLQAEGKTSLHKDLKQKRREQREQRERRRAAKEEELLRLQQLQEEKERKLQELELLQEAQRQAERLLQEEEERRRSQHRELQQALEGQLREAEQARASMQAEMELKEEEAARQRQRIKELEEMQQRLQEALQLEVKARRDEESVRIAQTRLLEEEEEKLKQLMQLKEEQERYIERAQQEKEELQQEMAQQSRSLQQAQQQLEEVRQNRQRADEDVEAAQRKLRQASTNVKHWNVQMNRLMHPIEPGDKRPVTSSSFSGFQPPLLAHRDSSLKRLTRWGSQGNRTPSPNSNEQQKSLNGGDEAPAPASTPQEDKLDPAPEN
UniProt Q9NZJ0: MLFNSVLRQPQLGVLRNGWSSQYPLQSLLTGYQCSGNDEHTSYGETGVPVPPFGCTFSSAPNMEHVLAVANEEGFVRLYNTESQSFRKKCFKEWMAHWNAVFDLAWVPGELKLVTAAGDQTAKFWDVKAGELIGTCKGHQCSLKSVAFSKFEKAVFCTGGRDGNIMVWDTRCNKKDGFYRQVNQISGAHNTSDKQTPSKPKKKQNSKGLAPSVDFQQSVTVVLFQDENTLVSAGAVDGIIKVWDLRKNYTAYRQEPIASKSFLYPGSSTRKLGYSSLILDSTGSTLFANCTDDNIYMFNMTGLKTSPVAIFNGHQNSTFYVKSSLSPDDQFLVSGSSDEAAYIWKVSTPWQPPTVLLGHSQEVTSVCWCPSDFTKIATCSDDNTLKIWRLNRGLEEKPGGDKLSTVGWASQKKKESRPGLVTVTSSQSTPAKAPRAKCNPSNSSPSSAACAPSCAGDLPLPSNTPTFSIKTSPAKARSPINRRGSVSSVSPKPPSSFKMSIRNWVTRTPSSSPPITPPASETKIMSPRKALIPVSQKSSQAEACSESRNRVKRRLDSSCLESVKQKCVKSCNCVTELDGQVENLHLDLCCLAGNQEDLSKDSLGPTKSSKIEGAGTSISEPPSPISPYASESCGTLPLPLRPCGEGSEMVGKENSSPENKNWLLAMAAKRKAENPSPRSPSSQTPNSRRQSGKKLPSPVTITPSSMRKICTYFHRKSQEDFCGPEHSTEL
UniProt Q92841: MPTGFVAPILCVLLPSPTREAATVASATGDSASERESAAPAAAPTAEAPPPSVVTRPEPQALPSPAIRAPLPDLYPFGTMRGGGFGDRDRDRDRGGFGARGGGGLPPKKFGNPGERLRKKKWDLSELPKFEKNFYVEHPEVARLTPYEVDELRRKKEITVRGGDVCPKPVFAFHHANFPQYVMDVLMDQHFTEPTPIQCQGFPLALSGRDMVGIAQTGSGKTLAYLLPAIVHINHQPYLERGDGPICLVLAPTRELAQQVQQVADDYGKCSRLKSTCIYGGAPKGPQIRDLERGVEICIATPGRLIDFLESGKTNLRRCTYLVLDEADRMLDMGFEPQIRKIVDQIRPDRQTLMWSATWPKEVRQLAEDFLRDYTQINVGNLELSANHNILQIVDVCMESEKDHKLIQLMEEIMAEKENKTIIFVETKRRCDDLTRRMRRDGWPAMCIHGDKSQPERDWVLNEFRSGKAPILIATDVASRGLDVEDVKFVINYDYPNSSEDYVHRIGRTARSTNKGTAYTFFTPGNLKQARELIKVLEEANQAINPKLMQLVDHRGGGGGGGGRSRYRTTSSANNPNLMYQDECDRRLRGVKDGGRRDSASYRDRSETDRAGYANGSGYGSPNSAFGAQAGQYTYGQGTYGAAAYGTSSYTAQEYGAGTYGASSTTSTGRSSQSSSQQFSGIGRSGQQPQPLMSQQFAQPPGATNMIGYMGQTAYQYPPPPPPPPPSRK
UniProt Q16643: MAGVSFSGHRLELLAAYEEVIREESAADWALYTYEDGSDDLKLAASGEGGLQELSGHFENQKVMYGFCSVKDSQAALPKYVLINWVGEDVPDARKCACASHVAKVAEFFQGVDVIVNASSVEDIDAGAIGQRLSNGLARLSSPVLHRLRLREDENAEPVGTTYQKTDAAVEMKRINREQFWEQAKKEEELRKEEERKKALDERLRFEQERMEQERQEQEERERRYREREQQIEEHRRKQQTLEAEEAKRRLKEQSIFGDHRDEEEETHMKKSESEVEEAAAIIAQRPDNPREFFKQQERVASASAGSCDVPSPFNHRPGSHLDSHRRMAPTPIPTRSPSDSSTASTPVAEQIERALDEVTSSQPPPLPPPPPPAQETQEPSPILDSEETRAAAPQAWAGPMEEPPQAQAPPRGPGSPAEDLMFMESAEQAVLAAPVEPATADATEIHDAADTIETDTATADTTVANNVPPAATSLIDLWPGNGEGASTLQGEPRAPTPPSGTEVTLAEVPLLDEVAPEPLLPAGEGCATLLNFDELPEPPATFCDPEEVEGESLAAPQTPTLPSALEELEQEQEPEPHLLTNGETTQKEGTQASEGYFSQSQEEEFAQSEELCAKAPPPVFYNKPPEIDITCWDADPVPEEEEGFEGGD
UniProt O00399, whole entry: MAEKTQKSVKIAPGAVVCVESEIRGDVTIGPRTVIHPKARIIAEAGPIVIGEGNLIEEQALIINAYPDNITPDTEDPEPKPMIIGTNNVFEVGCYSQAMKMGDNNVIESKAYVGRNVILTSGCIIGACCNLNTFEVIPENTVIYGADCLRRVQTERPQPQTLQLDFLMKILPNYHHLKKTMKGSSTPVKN

Compound: Nc1nc2c(ncn2[C@@H]2O[C@H](COP(=O)(O)OP(=O)(O)OP(=O)(O)O)[C@@H](O)[C@H]2O)c(=O)[nH]1
Assay: dose-dependent thermal stabilisation call (2D-TPP, DLPTP, 10% FDR) (binary (1 = stabilised)); higher = stabilised by the compound
Conditions: system: Jurkat gel-filtered lysate; concentration range 1-500 µM

With CSTB (UniProt P04080) as the target, how does the “dose-dependent thermal stabilisation call” value read?
The value was inactive: 0.

With CREB1 (UniProt P16220) as the target, how does the “dose-dependent thermal stabilisation call” value read?
The value was inactive: 0.

For CRYZL1 (UniProt O95825), which “dose-dependent thermal stabilisation call” value is on record?
Its value is active: 1.

CTSD (UniProt P07339) was tested. Which “dose-dependent thermal stabilisation call” value did it give?
Its value is inactive: 0.

With CRY1 (UniProt Q16526) as the target, how does the “dose-dependent thermal stabilisation call” value read?
Its value is inactive: 0.

With CTNNBL1 (UniProt Q8WYA6) as the target, how does the “dose-dependent thermal stabilisation call” value read?
Its value is inactive: 0.

For DGUOK (UniProt Q16854), which “dose-dependent thermal stabilisation call” value is on record?
Its value is inactive: 0.

For DDX3X (UniProt O00571), which “dose-dependent thermal stabilisation call” value is on record?
Its value is inactive: 0.

With DPP7 (UniProt Q9UHL4) as the target, how does the “dose-dependent thermal stabilisation call” value read?
The value was inactive: 0.

With DRAP1 (UniProt Q14919) as the target, how does the “dose-dependent thermal stabilisation call” value read?
Its value is inactive: 0.

How did the “dose-dependent thermal stabilisation call” value turn out when DDX39A (UniProt O00148) was run?
Its value is inactive: 0.

With CROCC (UniProt Q5TZA2) as the target, how does the “dose-dependent thermal stabilisation call” value read?
Its value is inactive: 0.

For DIABLO (UniProt Q9NR28), which “dose-dependent thermal stabilisation call” value is on record?
Its value is inactive: 0.

How did the “dose-dependent thermal stabilisation call” value turn out when CYTH1 (UniProt Q15438) was run?
Its value is inactive: 0.

DDX20 (UniProt Q9UHI6) was tested. Which “dose-dependent thermal stabilisation call” value did it give?
The value was active: 1.

DMXL1 (UniProt Q9Y485) was tested. Which “dose-dependent thermal stabilisation call” value did it give?
The value was inactive: 0.

With CRIP1 (UniProt P50238) as the target, how does the “dose-dependent thermal stabilisation call” value read?
The value was inactive: 0.

With DCTN5 (UniProt Q9BTE1) as the target, how does the “dose-dependent thermal stabilisation call” value read?
The value was inactive: 0.

How did the “dose-dependent thermal stabilisation call” value turn out when DDX19A (UniProt Q9NUU7) was run?
The value was inactive: 0.

With DIS3L2 (UniProt Q8IYB7) as the target, how does the “dose-dependent thermal stabilisation call” value read?
The value was inactive: 0.

How did the “dose-dependent thermal stabilisation call” value turn out when CRNKL1 (UniProt Q9BZJ0) was run?
Its value is inactive: 0.

Which “dose-dependent thermal stabilisation call” value does the source give for ECH1 (UniProt Q13011) here?
The value was inactive: 0.

Which “dose-dependent thermal stabilisation call” value does the source give for DTNBP1 (UniProt Q96EV8) here?
Its value is inactive: 0.

DCAF5 (UniProt Q96JK2) was tested. Which “dose-dependent thermal stabilisation call” value did it give?
Its value is inactive: 0.

How did the “dose-dependent thermal stabilisation call” value turn out when DECR1 (UniProt Q16698) was run?
The value was inactive: 0.

DNAJA2 (UniProt O60884) was tested. Which “dose-dependent thermal stabilisation call” value did it give?
Its value is inactive: 0.

DLGAP4 (UniProt Q9Y2H0) was tested. Which “dose-dependent thermal stabilisation call” value did it give?
Its value is inactive: 0.

Which “dose-dependent thermal stabilisation call” value does the source give for DNAJB1 (UniProt P25685) here?
Its value is inactive: 0.

With DENND6A (UniProt Q8IWF6) as the target, how does the “dose-dependent thermal stabilisation call” value read?
Its value is inactive: 0.

With DEK (UniProt P35659) as the target, how does the “dose-dependent thermal stabilisation call” value read?
The value was inactive: 0.

How did the “dose-dependent thermal stabilisation call” value turn out when DVL2 (UniProt O14641) was run?
The value was inactive: 0.

Which “dose-dependent thermal stabilisation call” value does the source give for DUSP3 (UniProt P51452) here?
Its value is inactive: 0.

With CWC15 (UniProt Q9P013) as the target, how does the “dose-dependent thermal stabilisation call” value read?
The value was inactive: 0.

How did the “dose-dependent thermal stabilisation call” value turn out when DYNC1I2 (UniProt Q13409) was run?
The value was active: 1.

Which “dose-dependent thermal stabilisation call” value does the source give for DHX16 (UniProt O60231) here?
The value was active: 1.

For DFFA (UniProt O00273), which “dose-dependent thermal stabilisation call” value is on record?
Its value is inactive: 0.

With DPH1 (UniProt Q9BZG8) as the target, how does the “dose-dependent thermal stabilisation call” value read?
Its value is active: 1.

Which “dose-dependent thermal stabilisation call” value does the source give for DCTN3 (UniProt O75935) here?
The value was inactive: 0.

Which “dose-dependent thermal stabilisation call” value does the source give for DNAJC24 (UniProt Q6P3W2) here?
The value was inactive: 0.

With DEF6 (UniProt Q9H4E7) as the target, how does the “dose-dependent thermal stabilisation call” value read?
The value was inactive: 0.

How did the “dose-dependent thermal stabilisation call” value turn out when DCK (UniProt P27707) was run?
The value was active: 1.

Which “dose-dependent thermal stabilisation call” value does the source give for DCAF7 (UniProt P61962) here?
Its value is inactive: 0.

With EEF1D (UniProt P29692) as the target, how does the “dose-dependent thermal stabilisation call” value read?
The value was inactive: 0.

Which “dose-dependent thermal stabilisation call” value does the source give for DHX9 (UniProt Q08211) here?
Its value is inactive: 0.

With CTNNA1 (UniProt P35221) as the target, how does the “dose-dependent thermal stabilisation call” value read?
The value was inactive: 0.

For DYNC1H1 (UniProt Q14204), which “dose-dependent thermal stabilisation call” value is on record?
The value was inactive: 0.

DTL (UniProt Q9NZJ0) was tested. Which “dose-dependent thermal stabilisation call” value did it give?
Its value is inactive: 0.

DGCR14 (UniProt Q96DF8) was tested. Which “dose-dependent thermal stabilisation call” value did it give?
The value was inactive: 0.

Which “dose-dependent thermal stabilisation call” value does the source give for DLG1 (UniProt Q12959) here?
Its value is inactive: 0.

Which “dose-dependent thermal stabilisation call” value does the source give for DDX17 (UniProt Q92841) here?
Its value is active: 1.

For DENR (UniProt O43583), which “dose-dependent thermal stabilisation call” value is on record?
Its value is inactive: 0.

With DPYSL2 (UniProt Q16555) as the target, how does the “dose-dependent thermal stabilisation call” value read?
Its value is inactive: 0.

How did the “dose-dependent thermal stabilisation call” value turn out when CTDP1 (UniProt Q9Y5B0) was run?
Its value is inactive: 0.

Which “dose-dependent thermal stabilisation call” value does the source give for CRIPT (UniProt Q9P021) here?
Its value is inactive: 0.

How did the “dose-dependent thermal stabilisation call” value turn out when DCUN1D5 (UniProt Q9BTE7) was run?
The value was active: 1.

DNAJB2 (UniProt P25686) was tested. Which “dose-dependent thermal stabilisation call” value did it give?
Its value is inactive: 0.

How did the “dose-dependent thermal stabilisation call” value turn out when DDX47 (UniProt Q9H0S4) was run?
The value was inactive: 0.

Which “dose-dependent thermal stabilisation call” value does the source give for DCAF15 (UniProt Q66K64) here?
Its value is inactive: 0.

How did the “dose-dependent thermal stabilisation call” value turn out when EAF1 (UniProt Q96JC9) was run?
Its value is inactive: 0.

How did the “dose-dependent thermal stabilisation call” value turn out when DBN1 (UniProt Q16643) was run?
The value was inactive: 0.

For CRBN (UniProt Q96SW2), which “dose-dependent thermal stabilisation call” value is on record?
The value was inactive: 0.

With CSNK1A1 (UniProt P48729) as the target, how does the “dose-dependent thermal stabilisation call” value read?
Its value is active: 1.

Which “dose-dependent thermal stabilisation call” value does the source give for DIAPH1 (UniProt O60610) here?
The value was inactive: 0.

With CXorf38 (UniProt Q8TB03) as the target, how does the “dose-dependent thermal stabilisation call” value read?
The value was inactive: 0.

Which “dose-dependent thermal stabilisation call” value does the source give for ECM29 (UniProt Q5VYK3) here?
The value was active: 1.

DLAT (UniProt P10515) was tested. Which “dose-dependent thermal stabilisation call” value did it give?
Its value is inactive: 0.

How did the “dose-dependent thermal stabilisation call” value turn out when DCTN6 (UniProt O00399) was run?
Its value is inactive: 0.

For DAP (UniProt P51397), which “dose-dependent thermal stabilisation call” value is on record?
The value was inactive: 0.

For CRELD2 (UniProt Q6UXH1), which “dose-dependent thermal stabilisation call” value is on record?
Its value is inactive: 0.

How did the “dose-dependent thermal stabilisation call” value turn out when DCAF6 (UniProt Q58WW2) was run?
Its value is inactive: 0.

How did the “dose-dependent thermal stabilisation call” value turn out when ECHS1 (UniProt P30084) was run?
The value was inactive: 0.

Which “dose-dependent thermal stabilisation call” value does the source give for DSN1 (UniProt Q9H410) here?
The value was inactive: 0.
